Data source: PubChem BioAssay AID1259254 (NCATS, 2017)

- Aim: 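Finding genes that stop cells copying their DNA twice in one cycle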 (primary screen)
- System: human HCT116 colorectal cancer cells
- Reagents: single siRNA against human genes
- Time to read-out: 3 days
- Measurement: 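Nuclei stained with Hoechst and imaged; cell-cycle phase assigned by DNA content; G2 share scaled per plate, non-targeting siRNA 0%, GMNN siRNA 100%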
- Reading the numbers: G2 robust z-score and G2 cells, % of GMNN control: higher = more G2 cells, more excess DNA replication; raw share of cells in G2: higher = larger share of cells with G2 DNA content
- Active means: 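An siRNA counts as active if its G2 robust z-score lies at least 5 MADs above the screen median; here such calls match roughly 38% of GMNN control or more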
The deposit covers about 59,000 reagents; this is a part drawn at random. In the full data, about 1,550 (2.6%) are marked active. 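G2 share is only a proxy for re-replication; each gene was hit by three separate siRNAs, and active genes were retested.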 Raw values are not corrected between plates. Reagents against one gene are numbered here. The record does not give: the amount of reagent.

gene | reagent | G2 robust z-score | G2 cells, % of GMNN control | raw share of cells in G2 (%) | Call
PGK1 (phosphoglycerate kinase 1) | 1 | 0.121 | 3.82 | 6.87 | inactive
PGK1 (phosphoglycerate kinase 1) | 2 | 0.392 | 5.73 | 7.34 | inactive
PGK1 (phosphoglycerate kinase 1) | 3 | -0.355 | 0.469 | 4.19 | inactive
PTK7 (protein tyrosine kinase 7 (inactive)) | 1 | -0.836 | -2.92 | 4.64 | inactive
PTK7 (protein tyrosine kinase 7 (inactive)) | 2 | -1.52 | -7.74 | 1.3 | inactive
PTK7 (protein tyrosine kinase 7 (inactive)) | 3 | -0.609 | -1.31 | 4.97 | inactive
STXBP3 (syntaxin binding protein 3) | 1 | 0.801 | 8.6 | 8.95 | inactive
STXBP3 (syntaxin binding protein 3) | 2 | -0.529 | -0.755 | 3.6 | inactive
STXBP3 (syntaxin binding protein 3) | 3 | -0.913 | -3.46 | 2.13 | inactive
CHRNB3 (cholinergic receptor nicotinic beta 3 subunit) | 1 | -0.726 | -2.14 | 4.51 | inactive
CHRNB3 (cholinergic receptor nicotinic beta 3 subunit) | 2 | -1.14 | -5.06 | 3.07 | inactive
CHRNB3 (cholinergic receptor nicotinic beta 3 subunit) | 3 | -0.12 | 2.12 | 5.2 | inactive
CLN5 (CLN5 lysosomal BMP synthase) | 1 | -0.707 | -2.01 | 4.36 | inactive
CLN5 (CLN5 lysosomal BMP synthase) | 2 | 2.58 | 21.1 | 11.8 | inactive
CLN5 (CLN5 lysosomal BMP synthase) | 3 | 0.588 | 7.11 | 6.31 | inactive
TMPRSS5 (transmembrane serine protease 5) | 1 | -1.45 | -7.21 | 2.55 | inactive
TMPRSS5 (transmembrane serine protease 5) | 2 | 0.0756 | 3.5 | 5.63 | inactive
TMPRSS5 (transmembrane serine protease 5) | 3 | 0.662 | 7.63 | 7.1 | inactive
GUCY2EP (guanylate cyclase 2E, pseudogene) | 1 | -0.736 | -2.21 | 4.95 | inactive
GUCY2EP (guanylate cyclase 2E, pseudogene) | 2 | -1.56 | -7.97 | 1.37 | inactive
GUCY2EP (guanylate cyclase 2E, pseudogene) | 3 | 2.53 | 20.8 | 13.1 | inactive
REL (REL proto-oncogene, NF-kB subunit) | 1 | 2.52 | 20.7 | 12.1 | inactive
REL (REL proto-oncogene, NF-kB subunit) | 2 | 0.124 | 3.84 | 6.15 | inactive
REL (REL proto-oncogene, NF-kB subunit) | 3 | -0.699 | -1.95 | 3.5 | inactive
LRFN1 | 1 | -0.687 | -1.86 | 4.87 | inactive
LRFN1 | 2 | 1.92 | 16.5 | 10.2 | inactive
LRFN1 | 3 | 0.817 | 8.72 | 7.39 | inactive
NLRP3 (NLR family pyrin domain containing 3) | 1 | -0.978 | -3.91 | 2.52 | inactive
NLRP3 (NLR family pyrin domain containing 3) | 2 | -0.849 | -3 | 2.44 | inactive
NLRP3 (NLR family pyrin domain containing 3) | 3 | 0.551 | 6.84 | 3.82 | inactive
YEATS4 (YEATS domain containing 4) | 1 | 0.921 | 9.45 | 9.59 | inactive
YEATS4 (YEATS domain containing 4) | 2 | 5.35 | 40.6 | 17.8 | active
YEATS4 (YEATS domain containing 4) | 3 | 0.402 | 5.8 | 6.42 | inactive
C9orf163 (chromosome 9 putative open reading frame 163) | 1 | -0.633 | -1.48 | 3.07 | inactive
C9orf163 (chromosome 9 putative open reading frame 163) | 2 | 2.64 | 21.5 | 10.2 | inactive
C9orf163 (chromosome 9 putative open reading frame 163) | 3 | -0.322 | 0.705 | 2.99 | inactive
TPSAB1 (tryptase alpha/beta 1) | 1 | -1.43 | -7.08 | 3.09 | inactive
TPSAB1 (tryptase alpha/beta 1) | 2 | -0.0918 | 2.32 | 5.73 | inactive
TPSAB1 (tryptase alpha/beta 1) | 3 | 0.338 | 5.34 | 5.9 | inactive
NLRP14 (NLR family pyrin domain containing 14) | 1 | 1.81 | 15.7 | 9.37 | inactive
NLRP14 (NLR family pyrin domain containing 14) | 2 | -0.51 | -0.622 | 2.99 | inactive
NLRP14 (NLR family pyrin domain containing 14) | 3 | 0.671 | 7.69 | 7.28 | inactive
USP30 (ubiquitin specific peptidase 30) | 1 | 1.11 | 10.7 | 10.1 | inactive
USP30 (ubiquitin specific peptidase 30) | 2 | 0.52 | 6.63 | 6.66 | inactive
USP30 (ubiquitin specific peptidase 30) | 3 | -0.491 | -0.487 | 4.08 | inactive
SMIM26 (small integral membrane protein 26) | 1 | -0.72 | -2.1 | 3.05 | inactive
SMIM26 (small integral membrane protein 26) | 2 | -0.229 | 1.36 | 4 | inactive
SMIM26 (small integral membrane protein 26) | 3 | -0.632 | -1.48 | 4 | inactive
EPHA7 (EPH receptor A7) | 1 | -0.298 | 0.869 | 5.89 | inactive
EPHA7 (EPH receptor A7) | 2 | 2.36 | 19.6 | 12 | inactive
EPHA7 (EPH receptor A7) | 3 | 0.492 | 6.43 | 6.29 | inactive
IL17D (interleukin 17D) | 1 | 0.204 | 4.4 | 5.18 | inactive
IL17D (interleukin 17D) | 2 | 0.234 | 4.61 | 6.21 | inactive
IL17D (interleukin 17D) | 3 | -0.675 | -1.78 | 2.6 | inactive
ARPC1A (actin related protein 2/3 complex subunit 1A) | 1 | -0.249 | 1.22 | 4.23 | inactive
ARPC1A (actin related protein 2/3 complex subunit 1A) | 2 | 0.384 | 5.67 | 8.71 | inactive
ARPC1A (actin related protein 2/3 complex subunit 1A) | 3 | 0.616 | 7.3 | 8.87 | inactive
CASP2 (caspase 2) | 1 | 3.03 | 24.3 | 14 | inactive
CASP2 (caspase 2) | 2 | -0.17 | 1.77 | 5.54 | inactive
CASP2 (caspase 2) | 3 | -0.991 | -4.01 | 2.42 | inactive
HSF5 (heat shock transcription factor 5) | 1 | 0.487 | 6.4 | 6.9 | inactive
HSF5 (heat shock transcription factor 5) | 2 | 2.06 | 17.5 | 13.8 | inactive
HSF5 (heat shock transcription factor 5) | 3 | 1.87 | 16.1 | 11.9 | inactive
DHX32 (DEAH-box helicase 32 (putative)) | 1 | 0.534 | 6.72 | 9.38 | inactive
DHX32 (DEAH-box helicase 32 (putative)) | 2 | 1.79 | 15.6 | 10 | inactive
DHX32 (DEAH-box helicase 32 (putative)) | 3 | -0.897 | -3.34 | 2.94 | inactive
IFITM1 (interferon induced transmembrane protein 1) | 1 | 6.15 | 46.3 | 25.6 | active
IFITM1 (interferon induced transmembrane protein 1) | 2 | -1.11 | -4.85 | 1.97 | inactive
IFITM1 (interferon induced transmembrane protein 1) | 3 | 3.44 | 27.2 | 12.9 | inactive

A portion of the results above, for reference:
gene | reagent | G2 robust z-score | G2 cells, % of GMNN control | raw share of cells in G2 (%) | Call
NLRP3 (NLR family pyrin domain containing 3) | 1 | -0.978 | -3.91 | 2.52 | inactive
NLRP3 (NLR family pyrin domain containing 3) | 2 | -0.849 | -3 | 2.44 | inactive
NLRP3 (NLR family pyrin domain containing 3) | 3 | 0.551 | 6.84 | 3.82 | inactive
YEATS4 (YEATS domain containing 4) | 1 | 0.921 | 9.45 | 9.59 | inactive
